# Measured data: PubChem BioAssay AID1259254 (NCATS, 2017)
# Screen: 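Genome-wide screen for genes that prevent DNA re-replication in cancer cells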 (primary screen)
# Cells: human HCT116 colorectal cancer cells
# Reagents: single siRNA against human genes
# Timing: 3 days
# Detection: 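Imaged Hoechst DNA stain sorts each cell into a cycle phase by DNA amount; per plate, G2 fraction set to 0% for non-targeting and 100% for GMNN siRNA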
# Reading the numbers: G2 robust z-score and G2 cells, % of GMNN control: higher = more G2 cells, more excess DNA replication; raw share of cells in G2: higher = larger share of cells with G2 DNA content
# Rule for the call: 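Active siRNAs have a G2 robust z of 5 or more median absolute deviations over the median, which in these data means about 38% or higher of GMNN control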
# This is a random part of about 59,000 reagents. About 1,550 of them (2.6%) were called active. 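G2 share is only a proxy for re-replication; each gene was hit by three separate siRNAs, and active genes were retested.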 Raw values are not corrected between plates. Reagents against one gene are numbered here. Not given: the amount of reagent.
The opening 5 entries, ahead of the listing:
target,reagent,G2 robust z-score,"G2 cells, % of GMNN control",raw share of cells in G2 (%),Call
UBXN10,1,-1.21,-5.54,2.09,inactive
UBXN10,2,0.227,4.56,4.55,inactive
UBXN10,3,-0.939,-3.64,1.26,inactive
PROM2,1,0.295,5.05,4.83,inactive
PROM2,2,-0.172,1.76,3.78,inactive

The listing, from the start:
target,reagent,G2 robust z-score,"G2 cells, % of GMNN control",raw share of cells in G2 (%),Call
UBXN10,1,-1.21,-5.54,2.09,inactive
UBXN10,2,0.227,4.56,4.55,inactive
UBXN10,3,-0.939,-3.64,1.26,inactive
PROM2,1,0.295,5.05,4.83,inactive
PROM2,2,-0.172,1.76,3.78,inactive
PROM2,3,0.923,9.46,6.84,inactive
LYSMD1,1,-0.397,0.174,4.71,inactive
LYSMD1,2,1.84,15.9,9.22,inactive
LYSMD1,3,-0.403,0.134,3.46,inactive
UCP3,1,0.351,5.44,7.9,inactive
UCP3,2,5.62,42.5,18.5,active
UCP3,3,-0.715,-2.06,3.49,inactive
UQCRC1,1,0.869,9.08,8.73,inactive
UQCRC1,2,-1.21,-5.58,2.93,inactive
UQCRC1,3,0.384,5.67,6.02,inactive
SPHKAP,1,2.79,22.6,13.8,inactive
SPHKAP,2,1.94,16.6,11.6,inactive
SPHKAP,3,0.282,4.95,3.73,inactive
RNF151,1,1.52,13.7,7.14,inactive
RNF151,2,-0.71,-2.03,2.36,inactive
RNF151,3,-0.908,-3.42,2.68,inactive
ZNF705G,1,0.619,7.32,6.51,inactive
ZNF705G,2,0.468,6.26,5.48,inactive
ZNF705G,3,-0.51,-0.624,2.59,inactive
SPDYE10,1,0.593,7.14,5.84,inactive
SPDYE10,2,-0.093,2.31,3.82,inactive
SPDYE10,3,1.15,11,7.84,inactive
ENPP4,1,1.95,16.7,9.58,inactive
ENPP4,2,0.478,6.33,8.91,inactive
ENPP4,3,-0.9,-3.36,3.03,inactive
CUL9,1,0.356,5.47,8.57,inactive
CUL9,2,-1.26,-5.87,2.19,inactive
CUL9,3,0.21,4.44,5.39,inactive
MECR,1,0.0187,3.1,4.99,inactive
MECR,2,-1.14,-5.06,3.66,inactive
MECR,3,-0.652,-1.62,3.64,inactive
SLED1,1,0.368,5.56,5.24,inactive
SLED1,2,0.665,7.65,6.12,inactive
SLED1,3,-0.76,-2.38,3.37,inactive
HIP1R,1,7.2,53.6,28.9,active
HIP1R,2,-0.797,-2.64,2.85,inactive
HIP1R,3,-0.117,2.14,4.1,inactive
COQ5,1,7.54,56,25.5,active
COQ5,2,-1.01,-4.11,2.71,inactive
COQ5,3,-0.633,-1.49,4.81,inactive
RABIF,1,2.01,17.1,11.2,inactive
RABIF,2,3.72,29.1,13.8,inactive
RABIF,3,-0.575,-1.08,4.61,inactive
